In patent publication US11464879B2, “Cellular targeted active ingredient delivery system” (CELLIS SP. Z O.O. [LTD.], priority 2015, dated 2022):

Columns and labels:
[1] = system: CD45+ leukocytes (macrophages, monocytes, lymphocytes, granulocytes); experiment: uptake of iron binding protein by CD45+ leukocyte cells; format: cell-based; conditions: cells incubated 1-4 hrs in protein solution (ferritin 0.2 mg/ml; haemoglobin, transferrin 0.1 mg/ml), standard culture conditions
[2] = system: cancer cells: mouse mammary cancer, colon cancer, canine mammary cancer, human breast, pancreatic, and bladder cancer; experiment: transfer of carrier protein from loaded leukocytes to cancer cells; format: cell-based

## transferrins: human holo-transferrin (SEQ ID NO: 28) purified from serum of healthy donor
[1]
  uptake of the protein by cells: very easily uptake
[2]; from loaded granulocytes
  transport of carrier protein to cancer cells: very easily transport
[2]; from loaded lymphocytes
  transport of carrier protein to cancer cells: very easily transport
[2]; from loaded macrophages
  transport of carrier protein to cancer cells: very easily transport
[2]; from loaded monocytes
  transport of carrier protein to cancer cells: very easily transport

## haemoglobins: human haemoglobin prepared from fresh red cells (SEQ ID NO: 18 or 22)
[1]
  uptake of the protein by cells: very easily uptake
[2]; from loaded granulocytes
  transport of carrier protein to cancer cells: very easily transport
[2]; from loaded lymphocytes
  transport of carrier protein to cancer cells: very easily transport
[2]; from loaded macrophages
  transport of carrier protein to cancer cells: very easily transport
[2]; from loaded monocytes
  transport of carrier protein to cancer cells: very easily transport
